Test results as given in US20240084032A1.
These are yes or no findings as the source states them, for the method shown. Binding can be weak; no strength is given.

Amino acid sequences for entries named in this document (tags omitted). A change or cut given only in a name is not applied to a line headed by its entry.
UniProt Q9H5V8: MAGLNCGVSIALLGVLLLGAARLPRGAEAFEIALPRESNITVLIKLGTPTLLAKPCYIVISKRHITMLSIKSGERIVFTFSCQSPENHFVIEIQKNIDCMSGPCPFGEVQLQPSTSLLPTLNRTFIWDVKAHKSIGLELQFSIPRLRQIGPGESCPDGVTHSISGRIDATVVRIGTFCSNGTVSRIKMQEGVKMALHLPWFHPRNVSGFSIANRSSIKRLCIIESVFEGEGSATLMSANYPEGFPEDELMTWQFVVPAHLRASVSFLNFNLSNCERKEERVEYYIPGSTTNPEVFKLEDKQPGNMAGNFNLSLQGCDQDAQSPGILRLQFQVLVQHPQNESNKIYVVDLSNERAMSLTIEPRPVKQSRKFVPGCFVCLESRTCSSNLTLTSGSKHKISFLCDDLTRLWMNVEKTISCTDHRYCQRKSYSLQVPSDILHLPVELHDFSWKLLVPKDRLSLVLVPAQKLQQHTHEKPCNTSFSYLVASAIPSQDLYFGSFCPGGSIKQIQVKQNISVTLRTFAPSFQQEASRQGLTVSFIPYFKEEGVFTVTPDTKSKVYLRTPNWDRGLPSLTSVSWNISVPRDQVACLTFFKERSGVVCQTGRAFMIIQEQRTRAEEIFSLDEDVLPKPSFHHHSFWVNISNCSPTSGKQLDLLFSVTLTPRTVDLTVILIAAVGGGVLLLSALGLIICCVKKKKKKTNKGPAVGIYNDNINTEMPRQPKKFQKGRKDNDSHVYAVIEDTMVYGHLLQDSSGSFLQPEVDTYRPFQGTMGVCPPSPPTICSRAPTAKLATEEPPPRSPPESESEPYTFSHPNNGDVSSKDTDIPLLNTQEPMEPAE

Biological target: human CDCP1 endogenously expressed on cancer cell lines (human) (UniProt Q9H5V8)
Assay: live cell immunofluorescence on HCT116 cells

B1: 38E11 (antibody, human IgG1, V domains shown)
VH: EVQLLESGGGLVQPGGSLRLSCAASGFTFSNYAMNWVRQAPGKGLEWVSAISGGGGSTYYADSVKGRFTISRDNSKNTLYLQMNSLRAEDTAVYYCAKESITMVRGVMDYYGMDVWGQGTTVTVSS
VL: DIQLTQSPSFLSASVGDRVTITCRASQGISSYLAWYQQKPGKAPKLLIYAASTLQGGVPSRFSGSGSGTEFTLTISSLQPEDFATYYCQHLNRFPRTFGQGTKVEIK
Question: B1 was tested. Which binding did it give?
Answer: binds
